Values from PubChem BioAssay AID1224830 (NIAID, 2016)
This is an unselected part of about 18,000 deposited reagents. Over the whole deposit, about 2,900 (16%) got an active call. 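Calls are made per well; low scores hint the gene aids the LPS response, high scores that it dampens it.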 Repeated entries: four replicate wells of each siRNA pool.

- Test: 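Genes whose knock-down alters the TNF-alpha reporter response to LPS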 (primary screen)
- System: human THP-1 monocytic leukaemia cells, TNF dual-luciferase reporter clone, PMA-differentiated to macrophage-like cells
- Knock-down reagent: siRNA pool against human genes, 50 nM
- Timing: LPS for 4 h, given about 3 days after siRNA transfection
- Conditions: bacterial LPS (TLR4 ligand), 10 ng/ml
- Measurement: 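Ratio of firefly to renilla light, scaled to the plate median and expressed as a robust z-score per replicate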
- Scale: TNF reporter robust z-score: higher = stronger TNF reporter response to LPS
- Rule for the call: 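a well is active when its z-score exceeds 2.8 or falls below -1.5; control wells carry no call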

| Gene | TNF reporter robust z-score | Outcome |
| --- | --- | --- |
| TMEM161A (GeneID 54929) | -1.46 | inactive |
| TMEM161A (GeneID 54929) | -0.47 | inactive |
| TMEM161A (GeneID 54929) | -1.67 | active |
| TMEM161A (GeneID 54929) | -0.66 | inactive |
| ENTREP3 (GeneID 10712) | -0.08 | inactive |
| ENTREP3 (GeneID 10712) | 0.25 | inactive |
| ENTREP3 (GeneID 10712) | 0.08 | inactive |
| ENTREP3 (GeneID 10712) | 0.07 | inactive |
| ATP11B (GeneID 23200) | 0.89 | inactive |
| ATP11B (GeneID 23200) | 1.7 | inactive |
| ATP11B (GeneID 23200) | 1.07 | inactive |
| ATP11B (GeneID 23200) | 1.43 | inactive |
| PLVAP (GeneID 83483) | 0.22 | inactive |
| PLVAP (GeneID 83483) | -1 | inactive |
| PLVAP (GeneID 83483) | -0.23 | inactive |
| PLVAP (GeneID 83483) | -0.7 | inactive |
| HCN2 (GeneID 610) | -0.45 | inactive |
| HCN2 (GeneID 610) | 3.35 | active |
| HCN2 (GeneID 610) | 1.46 | inactive |
| HCN2 (GeneID 610) | 1.58 | inactive |
| VARS1 (GeneID 7407) | 0.57 | inactive |
| VARS1 (GeneID 7407) | 1.57 | inactive |
| VARS1 (GeneID 7407) | 1.38 | inactive |
| VARS1 (GeneID 7407) | 2.31 | inactive |
| PDCD11 (GeneID 22984) | 1.21 | inactive |
| PDCD11 (GeneID 22984) | 0.24 | inactive |
| PDCD11 (GeneID 22984) | 0.27 | inactive |
| PDCD11 (GeneID 22984) | 1.16 | inactive |
| C2orf69 (GeneID 205327) | 0.78 | inactive |
| C2orf69 (GeneID 205327) | 0.94 | inactive |
| C2orf69 (GeneID 205327) | 0.07 | inactive |
| C2orf69 (GeneID 205327) | 0.43 | inactive |
| PLD1 (GeneID 5337) | -1.02 | inactive |
| PLD1 (GeneID 5337) | 1.42 | inactive |
| PLD1 (GeneID 5337) | -1.05 | inactive |
| PLD1 (GeneID 5337) | 0.4 | inactive |
| FCMR (GeneID 9214) | -0.17 | inactive |
| FCMR (GeneID 9214) | -0.71 | inactive |
| FCMR (GeneID 9214) | -0.97 | inactive |
| FCMR (GeneID 9214) | 0.28 | inactive |
| ZW10 (GeneID 9183) | 1.82 | inactive |
| ZW10 (GeneID 9183) | 1.75 | inactive |
| ZW10 (GeneID 9183) | -0.03 | inactive |
| ZW10 (GeneID 9183) | 0.08 | inactive |
| ACADL (GeneID 33) | 0.6 | inactive |
| ACADL (GeneID 33) | 0.82 | inactive |
| ACADL (GeneID 33) | 0.72 | inactive |
| ACADL (GeneID 33) | 1.02 | inactive |
| EFNA1 (GeneID 1942) | 0.36 | inactive |
| EFNA1 (GeneID 1942) | 0.68 | inactive |
| EFNA1 (GeneID 1942) | -0.4 | inactive |
| EFNA1 (GeneID 1942) | 1.12 | inactive |
| RNF5 (GeneID 6048) | 0.84 | inactive |
| RNF5 (GeneID 6048) | 0.75 | inactive |
| RNF5 (GeneID 6048) | 0.46 | inactive |
| RNF5 (GeneID 6048) | -0.97 | inactive |
| FGA (GeneID 2243) | -1.03 | inactive |
| FGA (GeneID 2243) | -1.38 | inactive |
| FGA (GeneID 2243) | -0.56 | inactive |
| FGA (GeneID 2243) | -0.68 | inactive |
| CRP (GeneID 1401) | 0.42 | inactive |
| CRP (GeneID 1401) | 0.27 | inactive |
| CRP (GeneID 1401) | 0.82 | inactive |
| CRP (GeneID 1401) | 0.95 | inactive |
| UAP1 (GeneID 6675) | 0.63 | inactive |
| UAP1 (GeneID 6675) | -0.69 | inactive |
| UAP1 (GeneID 6675) | -0.04 | inactive |
| UAP1 (GeneID 6675) | -0.94 | inactive |
| H2BC11 (GeneID 8970) | -1.71 | active |
| H2BC11 (GeneID 8970) | -0.44 | inactive |
| H2BC11 (GeneID 8970) | -1.22 | inactive |
| H2BC11 (GeneID 8970) | -0.82 | inactive |
| AAMDC (GeneID 28971) | 2.41 | inactive |
| AAMDC (GeneID 28971) | 5.88 | active |
| AAMDC (GeneID 28971) | 3.13 | active |
| AAMDC (GeneID 28971) | 2.62 | inactive |
| GDAP1 (GeneID 54332) | 1.4 | inactive |
| GDAP1 (GeneID 54332) | 0 | inactive |
| GDAP1 (GeneID 54332) | 1.16 | inactive |
| GDAP1 (GeneID 54332) | 1.98 | inactive |
| KRT19 (GeneID 3880) | -0.22 | inactive |
| KRT19 (GeneID 3880) | -0.43 | inactive |
| KRT19 (GeneID 3880) | -0.02 | inactive |
| KRT19 (GeneID 3880) | 0.39 | inactive |
| PSMC1 (GeneID 5700) | -2.27 | active |
| PSMC1 (GeneID 5700) | -2.16 | active |
| PSMC1 (GeneID 5700) | -2.13 | active |
| PSMC1 (GeneID 5700) | -2.02 | active |
| RBM15B (GeneID 29890) | -0.64 | inactive |
| RBM15B (GeneID 29890) | -0.31 | inactive |
| RBM15B (GeneID 29890) | 0.5 | inactive |
| RBM15B (GeneID 29890) | -0.35 | inactive |
| KCNMB3 (GeneID 27094) | 1.21 | inactive |
| KCNMB3 (GeneID 27094) | 1.33 | inactive |
| KCNMB3 (GeneID 27094) | 2.55 | inactive |
| KCNMB3 (GeneID 27094) | 1.61 | inactive |
| ALPL (GeneID 249) | 0.96 | inactive |
| ALPL (GeneID 249) | 2.35 | inactive |
| ALPL (GeneID 249) | 0.97 | inactive |
| ALPL (GeneID 249) | 2.49 | inactive |
| TMEM47 (GeneID 83604) | -0.41 | inactive |
| TMEM47 (GeneID 83604) | -0.04 | inactive |
| TMEM47 (GeneID 83604) | -0.49 | inactive |
| TMEM47 (GeneID 83604) | 0.21 | inactive |
| TLE6 (GeneID 79816) | -1.25 | inactive |
| TLE6 (GeneID 79816) | -0.26 | inactive |
| TLE6 (GeneID 79816) | 0.42 | inactive |
| TLE6 (GeneID 79816) | 0.08 | inactive |
| SAMD10 (GeneID 140700) | -1.58 | active |
| SAMD10 (GeneID 140700) | -0.39 | inactive |
| SAMD10 (GeneID 140700) | -1.2 | inactive |
| SAMD10 (GeneID 140700) | -0.55 | inactive |

6 neighbouring entries from above:
| Gene | TNF reporter robust z-score | Outcome |
| --- | --- | --- |
| AAMDC (GeneID 28971) | 3.13 | active |
| AAMDC (GeneID 28971) | 2.62 | inactive |
| GDAP1 (GeneID 54332) | 1.4 | inactive |
| GDAP1 (GeneID 54332) | 0 | inactive |
| GDAP1 (GeneID 54332) | 1.16 | inactive |
| GDAP1 (GeneID 54332) | 1.98 | inactive |
